Assay results as given in US8148426B2, “Bis(thio-hydrazide amides) for increasing Hsp70 expression” (Synta Pharmaceuticals Corp., priority 2004, dated 2012).

Test: Tissue distribution in SW female mice, intravenous (Example 1)
Format: in vivo
Conditions: mouse, brain, 25 mg/kg, second experiment, with negative control atenolol, read-out: brain concentration as % of plasma concentration
Method: Plasma samples were prepared by combining 50 μL plasma+50 μL 1% dithiothreitol (DTT)+150 μL CH3CN (0.1% HCOOH), centrifuged at 10,000 rpm×5 min; 150 μL supernatant+90 μL H2O. Tissue samples were prepared by homogenizing a weighed tissue sample in phosphor-buffered saline (PBS, ×1)+1% DTT (×1)+CH3CN (0.1% HCOOH) (×3)), centrifuged at 10,000 rpm×5 min; 150 μL supernatant+90 μL H2O. […] The running time was 15 min.

Work on `CC(C)NCC(O)COc1ccc(CC(N)=O)cc1` (stereo not shown) [atenolol, reference compound] yielded a Kp at 30 min of 0.04.
